Results reported in paper PMC7819943, “Rice protein-binding microarrays: a tool to detect cis-acting elements near promoter regions in rice”.
The list shows a part of the results.

Each sequence was assayed against T1, OsSMF1 (Oryza sativa, UniProt Q6ZLB0 1-436) (assay: protein-binding microarray (RPBM); PBS, 2% BSA, 51.3 ng/ul salmon testes DNA, 50 uM zinc acetate, 200 nM TF, 25 C, 1 h; high values mean tight binding). Settings: protein: recombinant; tags: N-terminal polyhistidine and DsRed monomer fusion (pET32a); chain copies: 2; label: CyDye5-dUTP incorporated in the synthesized complementary strand; 3' TTTTT single-stranded linker to array surface; dsDNA, one strand shown.
T1 sequence: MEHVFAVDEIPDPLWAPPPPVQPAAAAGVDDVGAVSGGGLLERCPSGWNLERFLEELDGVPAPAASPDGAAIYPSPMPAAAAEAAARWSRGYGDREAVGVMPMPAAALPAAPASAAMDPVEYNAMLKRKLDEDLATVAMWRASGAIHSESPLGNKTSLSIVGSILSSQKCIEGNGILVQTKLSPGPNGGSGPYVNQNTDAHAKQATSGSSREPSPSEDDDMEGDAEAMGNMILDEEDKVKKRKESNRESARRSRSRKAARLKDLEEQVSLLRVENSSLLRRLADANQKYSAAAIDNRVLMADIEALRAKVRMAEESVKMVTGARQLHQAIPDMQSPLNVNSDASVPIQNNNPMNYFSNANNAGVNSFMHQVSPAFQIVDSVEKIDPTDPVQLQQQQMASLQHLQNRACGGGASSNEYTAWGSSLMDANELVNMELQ
Outline: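 The binding signal is fluorescence intensity per array feature (arbitrary units). Readings came from an Axon 4000B scanner after a washed, 2% BSA-blocked, double-stranded custom Agilent array had been incubated for 1 h at 25 °C with 200 nM protein and 50 µM zinc acetate. The protein was a Ni–NTA-purified transcription factor fused N-terminally to polyhistidine and DsRed, expressed in E. coli BL21-CodonPlus.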

| Sequence | binding signal |
| --- | --- |
| AAGTACGCCTTCGAAGCACGATTACGTAATGGTTGCATTACGGAGTCACCTAGTGCAG | 4840 fluorescence intensity (a.u.) |
| TTGCAGCAGAATACTTACCACGACAGAATTTGAGGATCTACGGAGTCACCTAGTGCAG | 29500 fluorescence intensity (a.u.) |
| ATATGGTTCGTATGTCCTCAACGCAAAGGCCAGCTTGGCCCGGAGTCACCTAGTGCAG | 30300 fluorescence intensity (a.u.) |
| AACGTCGGTTCCCAAACATTTGTTTTCCTTACCAATCGGGCGGAGTCACCTAGTGCAG | 3490 fluorescence intensity (a.u.) |
| TTTTCTAACCAGGCGATTGTGCCAGCCCAGCAGTACTACCCGGAGTCACCTAGTGCAG | 3420 fluorescence intensity (a.u.) |
| ATACTAGACCATCTTCAGTCATAGGATCCCCATTTTAAAGCGGAGTCACCTAGTGCAG | 26500 fluorescence intensity (a.u.) |
| TACCTCCGCGCGCGCCTTGTGTTCGACCCACGTCAACCCACGGAGTCACCTAGTGCAG | 5360 fluorescence intensity (a.u.) |
| AAGATCTCCCAGGCCTCGTGTTTTACGTCAACTGGTTGTACGGAGTCACCTAGTGCAG | 3380 fluorescence intensity (a.u.) |
| GCCGATACATAAGAGATATCATCATGTCCTGTAGCATTTTCGGAGTCACCTAGTGCAG | 3510 fluorescence intensity (a.u.) |
| CTCCATCGCGCGTCTGGATTCTGCGTGCCACGGACAAGTCCGGAGTCACCTAGTGCAG | 3690 fluorescence intensity (a.u.) |
| GTTCAGGCAGTCAGGCACTGCAGCGGCCTGTGATACGTGGCGGAGTCACCTAGTGCAG | 4210 fluorescence intensity (a.u.) |
| CCAGTAGTGATCAACATGTACACCTCATACCATGTCCTTTCGGAGTCACCTAGTGCAG | 6630 fluorescence intensity (a.u.) |
| GAGAAAGGGTGTTGACGTGGCATCCTGACATGTGGGGTCCCGGAGTCACCTAGTGCAG | 15100 fluorescence intensity (a.u.) |
| ACACAGATTACGTGTAAATTGCGAGACAAATCTTTTAACCCGGAGTCACCTAGTGCAG | 4290 fluorescence intensity (a.u.) |
| CCCGAAGCGGATTCGCGCACGGAAACCCACAGTCGATTCTCGGAGTCACCTAGTGCAG | 3590 fluorescence intensity (a.u.) |
| TATATATATATATATATATATATATCGAAGCAAATTCCCACGGAGTCACCTAGTGCAG | 3490 fluorescence intensity (a.u.) |
| TTTTACCATGAGGATCCCATGTGTTTCTTTTCCTTGATTTCGGAGTCACCTAGTGCAG | 3230 fluorescence intensity (a.u.) |
| ATCGATCTATCGATCCGATTAATAGTGCCATGAAATATCTCGGAGTCACCTAGTGCAG | 22700 fluorescence intensity (a.u.) |
| TGAAGTTTATAGGTAGTAGCAAAGTCATCATCAATGTGTGCGGAGTCACCTAGTGCAG | 4370 fluorescence intensity (a.u.) |
| GGCTGCTACGGCGTTGGCGCGCGGCTGCCAGCTAGGCACCCGGAGTCACCTAGTGCAG | 4960 fluorescence intensity (a.u.) |
| AATATAGGGGTATCTTTTAAAATATTTTGTATATACTGAACGGAGTCACCTAGTGCAG | 36500 fluorescence intensity (a.u.) |

For reference, part of the list above.

| Sequence | binding signal |
| --- | --- |
| CTCCATCGCGCGTCTGGATTCTGCGTGCCACGGACAAGTCCGGAGTCACCTAGTGCAG | 3690 fluorescence intensity (a.u.) |
| GTTCAGGCAGTCAGGCACTGCAGCGGCCTGTGATACGTGGCGGAGTCACCTAGTGCAG | 4210 fluorescence intensity (a.u.) |
| CCAGTAGTGATCAACATGTACACCTCATACCATGTCCTTTCGGAGTCACCTAGTGCAG | 6630 fluorescence intensity (a.u.) |
| GAGAAAGGGTGTTGACGTGGCATCCTGACATGTGGGGTCCCGGAGTCACCTAGTGCAG | 15100 fluorescence intensity (a.u.) |
| ACACAGATTACGTGTAAATTGCGAGACAAATCTTTTAACCCGGAGTCACCTAGTGCAG | 4290 fluorescence intensity (a.u.) |
| CCCGAAGCGGATTCGCGCACGGAAACCCACAGTCGATTCTCGGAGTCACCTAGTGCAG | 3590 fluorescence intensity (a.u.) |
| TATATATATATATATATATATATATCGAAGCAAATTCCCACGGAGTCACCTAGTGCAG | 3490 fluorescence intensity (a.u.) |
| TTTTACCATGAGGATCCCATGTGTTTCTTTTCCTTGATTTCGGAGTCACCTAGTGCAG | 3230 fluorescence intensity (a.u.) |
| ATCGATCTATCGATCCGATTAATAGTGCCATGAAATATCTCGGAGTCACCTAGTGCAG | 22700 fluorescence intensity (a.u.) |
| TGAAGTTTATAGGTAGTAGCAAAGTCATCATCAATGTGTGCGGAGTCACCTAGTGCAG | 4370 fluorescence intensity (a.u.) |

The listing continues.

| Sequence | binding signal |
| --- | --- |
| ACTGTCTGATATATTTTACATGACAACAAAGTTACAAGTACGGAGTCACCTAGTGCAG | 4140 fluorescence intensity (a.u.) |
| TTTGGGTGAAGTGTCACGTAGTCATGTTGCCTTGGCGTCACGGAGTCACCTAGTGCAG | 3330 fluorescence intensity (a.u.) |
| CTATCATATGTCGACATCAGTGACGTCACTCAGGCAGTCACGGAGTCACCTAGTGCAG | 13600 fluorescence intensity (a.u.) |
| CCGCCACTGGCGTGCCGGTGACATGCTTGGACTCATCCACCGGAGTCACCTAGTGCAG | 4180 fluorescence intensity (a.u.) |
| GCGGCGGTGGGTGGCGGGGCAGCAGACGAGCAAGAAAGAGCGGAGTCACCTAGTGCAG | 3170 fluorescence intensity (a.u.) |
| GGTTCGTTCGTTCGCCGCTAGTTGCCACCTTCGCCGCGGCCGGAGTCACCTAGTGCAG | 3320 fluorescence intensity (a.u.) |
| AGCAAAGTGAAGGGCAATGGGACACAGGGTGGCATGTGTTCGGAGTCACCTAGTGCAG | 15600 fluorescence intensity (a.u.) |
| AATATCACGCTTATAAAGATGGCTACAATATAGAAGAGATCGGAGTCACCTAGTGCAG | 26200 fluorescence intensity (a.u.) |
| GCCATTTCCCCACGTTGATGTTGACTGTTTACTGTTTAGACGGAGTCACCTAGTGCAG | 3580 fluorescence intensity (a.u.) |
| CATTCGTGACCGGCCGCCGCCCTCGCCTTCTCCGGCGTCGCGGAGTCACCTAGTGCAG | 3300 fluorescence intensity (a.u.) |
| CCCCTTCGTCGTCTTCGTCATCGTCTCCAACCTCCGATTTCGGAGTCACCTAGTGCAG | 4640 fluorescence intensity (a.u.) |
| GACCCAAATGTCATAGAGACACGACGGTTCACATGTCATACGGAGTCACCTAGTGCAG | 3900 fluorescence intensity (a.u.) |
| GAGTATTTTACAGGGGTTTCATCGTGTCATTTGCCACCCGCGGAGTCACCTAGTGCAG | 3160 fluorescence intensity (a.u.) |
| AAAACAAATCACAAATATGACGTCATAATTACCGGCTTTCCGGAGTCACCTAGTGCAG | 20200 fluorescence intensity (a.u.) |
| ATTAGGAGTATCTTGCCAAGTGTCCAACTAGACATGGTCCCGGAGTCACCTAGTGCAG | 4110 fluorescence intensity (a.u.) |
| TTTTCTGTTCTGCATGAGCCATGTGGATTTGGTTGTCTACCGGAGTCACCTAGTGCAG | 4560 fluorescence intensity (a.u.) |
| GCGGACGCGGGAAGTTCCCCTCCGGTTCCCATGTCACCGGCGGAGTCACCTAGTGCAG | 3240 fluorescence intensity (a.u.) |
| AAGGTTTGGGTTGAGATGGGAGTAGAAGGGAGTGAGGTGGCGGAGTCACCTAGTGCAG | 6950 fluorescence intensity (a.u.) |
| CATATGGTGTCTTGTAAATTTCCTTTTCCACGTACTAACACGGAGTCACCTAGTGCAG | 3490 fluorescence intensity (a.u.) |
| AACTGTGCTTACATCAGGCATGTGAGTTTCTTTATTGGTTCGGAGTCACCTAGTGCAG | 6220 fluorescence intensity (a.u.) |
| CATGAAACGTCCACGTGGTGGTTAATTAATTTCGTGTGCGCGGAGTCACCTAGTGCAG | 7080 fluorescence intensity (a.u.) |
